Experimental findings from PubChem BioAssay AID2685 (National Center for Advancing Translational Sciences (NCATS), 2010) are described below.

Some of the results follow. Further columns of the screen follow, without active or inactive calls. Compounds called inactive in the main read-out are mostly missing here. Potencies come from curve fits of mixed quality, noted in brackets.

A short description of this assay: qHTS Assay for Lipid Storage Modulators in Drosophila S3 Cells.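 For cell number change: cells counted by Cell Tracker Red CMTPX staining in the red channel.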 The conditions noted are these: BODIPY lipid droplet fluorescence, 18-24 h; for cell number change: measured here: cell count max response, cells fed with added oleic acid. The gist of the method: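 Laser-scanning cytometry quantifies lipid droplet accumulation (500–530 nm total intensity; droplet/cell object ratio) in oleic acid-fed (400 uM added) Drosophila S3 cells treated with a concentration series. 20 uM Triacsin C defined 100% inhibition.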
(Quantitative high-throughput screening tests each substance at several concentrations.)

Setting [1] is: measured here: cell number channel AC50, cells fed with added oleic acid.
Setting [2] is: measured here: lipid fluorescence (Fed channel) AC50, cells fed with added oleic acid.

Turning to `C=CCNC(=O)c1ccc(-n2cccc2)cc1`, the cell number change is 5.58%.

A word on the AC50: it is the concentration at which the activity in the assay is half-maximal. Lower therefore signals greater potency. Regarding `CC(Sc1nc(C(F)(F)F)nc2ccccc12)C(=O)NC1CCCC1` (stereo not given), the cell number change worked out at 39.8%. In addition, under setting [1], the half-maximal activity concentration (AC50) was 0.58 µM [rising, partial curve, poor fit]. `COc1cc(CN2CCC(Oc3cc(C(=O)NC4CC4)ccc3OC)CC2)cc(OC)c1`: the cell number change stood at 33.1%. With `Nc1c(Cl)c(Cl)nc(C(=O)OCC(=O)NC2CCCCC2)c1Cl`, under setting [2], the AC50 was 3.66 µM [falling, full curve]. `COC(=O)c1cc(NC(=O)CN2CCOCC2)cc(C(=O)OC)c1`: the cell number change turned out to be 30.1%. For the same compound, the AC50 under setting [1] is 13 µM [rising, single point]. Under setting [2], the AC50 is 0.58 µM [falling, single point]. With `c1ccc(CN2CCN(c3nc4ccccc4s3)CC2)cc1`, the cell number change was determined as 3.42%. Besides, under setting [2], the AC50 was 6.51 µM [rising, single point]. On to `Cc1cccc(C)c1NC(=O)CSc1nnc(Cn2nnc(-c3ccccc3)n2)n1-c1ccccc1`, for which the cell number change is -22.2%. In addition, the AC50 under setting [2] was 0.116 µM [falling, full curve, poor fit]. In the case of `Clc1ccc(-c2nnc3sc(-c4ccc(Br)o4)nn23)c(Cl)c1`, the cell number change was -18%. For the same compound, under setting [2], the AC50 was 1.46 µM [rising, partial curve]. Turning to `NC(=O)c1cccc(NC(=O)CCCCC(=O)Nc2cccc(C(N)=O)c2)c1`, the half-maximal activity concentration (AC50) under setting [1] was 0.731 µM [falling, single point]. Take `COC(=O)c1sc(N)c(C(=O)OC)c1COC(=O)c1c(C)noc1C`: the cell number change is -23.7%. In the case of `O=C(O)c1cccc(N2C(=O)c3cccc4cccc(c34)C2=O)c1`, the cell number change is -2.12%. The AC50 under setting [2] is 0.146 µM [falling, full curve, poor fit].

For `O=C(NCc1ccco1)c1ccc(OCC2CCCO2)cc1` (stereo not given), the cell number change is -7.92%. For `COc1cccc(C(=O)N2N=C(c3ccccc3)CC2(O)C(F)(F)F)c1` (stereo not given), the cell number change is -4.77%. The AC50 under setting [1] is 0.366 µM [falling, full curve, poor fit]. Moreover, the half-maximal activity concentration (AC50) under setting [2] is 1.16 µM [falling, partial curve, poor fit].

Turning to `CSc1ccc(C=O)cc1`, the cell number change turned out to be 4.59%. On to `COc1ccccc1CSc1ncc(-c2ccc([N+](=O)[O-])cc2)[nH]1`, for which the cell number change amounted to 91.6%. In addition, the concentration at half-maximal activity (AC50) under setting [1] is 6.51 µM [rising, partial curve, poor fit]. In addition, under setting [2], the AC50 is 6.51 µM [rising, single point].

For the compound `CC1CCc2c(sc(NC(=O)CN3CCN(C(=O)c4ccco4)CC3)c2C#N)C1` (stereo not given), the cell number change worked out at 38.3%. Under setting [1], the half-maximal activity concentration (AC50) is 9.2 µM [rising, single point]. In the case of `CCCCNC(=S)N(C)/N=C/c1ccc(OCC(=O)Nc2ccc(OC)cc2)c(OC)c1`, the cell number change was -2.99%. Turning to `COC(=O)C1C(c2ccc(OC)c(OC)c2)NC(c2ccc(OC)c(OC)c2)C(C(=O)OC)S1(=O)=O` (stereo not given), the cell number change was 35.9%. Also, the concentration at half-maximal activity (AC50) under setting [1] was 4.61 µM [rising, partial curve, poor fit]. Further, the AC50 under setting [2] was 4.61 µM [rising, partial curve]. Regarding `COc1ccccc1NC(=O)C/C(C)=N/NC(=O)c1ccccn1`, the cell number change was -27.8%. Further, under setting [2], the concentration at half-maximal activity (AC50) was 6.51 µM [rising, single point]. Consider `CC1=Nc2cc(Cl)ccc2Oc2ccccc21`, for which the cell number change was -22.8%. For the same compound, the half-maximal activity concentration (AC50) under setting [2] was 25.9 µM [falling, single point]. Regarding `CC(C)(C)OC(=O)N1CCC(NC(=O)c2nc[nH]c2C(=O)NCc2ccccc2)CC1`, the cell number change is -1.56%. As to `c1ccc(Cn2nnc3c(NCc4ccc5c(c4)OCO5)ncnc32)cc1`, the cell number change was -12.3%. For the same compound, under setting [2], the AC50 is 2.91 µM [rising, single point]. As to `O=[N+]([O-])c1ccc(O)c(C=Nc2cccc3ccccc23)c1`, the cell number change was -9.45%. Also, the half-maximal activity concentration (AC50) under setting [2] was 16.4 µM [rising, partial curve].

As to `CC1CCN(S(=O)(=O)c2ccc(NC(=O)Cc3ccc(S(=O)(=O)N4CCOCC4)s3)cc2)CC1`, the cell number change was -23.2%. In addition, under setting [2], the AC50 was 0.82 µM [falling, partial curve]. Regarding `CC1(C(=O)NC2CCCCC2)CCC(=O)N1Cc1cccnc1` (stereo not given), the cell number change is 24.9%. Also, under setting [2], the AC50 was 1.46 µM [rising, partial curve]. Consider `CS(=O)(=O)c1ccc2nc(NC(=O)CN3CCN(Cc4ccccc4)CC3)sc2c1`, for which the cell number change stood at 36.7%. Under setting [1], the half-maximal activity concentration (AC50) is 29.1 µM [rising, single point]. In the case of `Cc1ccc(C)c(NC(=O)Cn2nc(C(F)(F)F)cc2C2CC2)c1`, the cell number change was determined as 18.1%. For the same compound, the AC50 under setting [1] was 0.00517 µM [rising, full curve, poor fit]. Further, under setting [2], the AC50 is 0.366 µM [rising, full curve]. Turning to `CC1(C)Cc2c(sc3nn[nH]c(=O)c23)CO1`, the cell number change was -14%.

Take `O=C(NCC1CCCO1)C(c1ccccn1)N(Cc1ccccc1Cl)C(=O)CN1C(=O)c2ccccc2S1(=O)=O` (stereo not given): the cell number change worked out at 1.2%. On to `CC(C)(C)C1CCc2onc(C(=O)Nc3ccc(F)cc3F)c2C1` (stereo not given), for which the cell number change was -22.4%.

For the compound `CCOC(=O)c1cc(S(=O)(=O)N2CCCC2)cn1C`, the cell number change was determined as 17.2%. Also, the concentration at half-maximal activity (AC50) under setting [1] is 6.51 µM [rising, single point]. Further, the AC50 under setting [2] is 16.4 µM [rising, single point].

With `CSCCC(NC(=O)c1ccco1)C(=O)N1CCCCCCC1` (stereo not given), the concentration at half-maximal activity (AC50) under setting [2] was 0.146 µM [rising, full curve, poor fit]. As for `Cc1cccc(C(C)C)c1NC(=O)COC(=O)CCN1C(=O)C2CC=CCC2C1=O` (stereo not given), the cell number change was -0.697%. Moreover, under setting [2], the AC50 was 0.0058 µM [falling, full curve, poor fit]. For `O=C(NC(=S)Nc1ccc(S(=O)(=O)Nc2nccs2)cc1)c1cccnc1`, the AC50 under setting [2] was 7.31 µM [falling, partial curve]. On to `Oc1ccc(Br)cc1-c1cc(-c2ccccc2)n[nH]1`, for which the cell number change is -51%. Also, under setting [1], the AC50 is 29.1 µM [falling, single point]. Moreover, the half-maximal activity concentration (AC50) under setting [2] is 29.1 µM [falling, single point]. `CCC1CCCCN1CCCNC(=O)c1cn(C)c2ccc(S(=O)(=O)N(C)C3CCCCC3)cc2c1=O` (stereo not given): the cell number change was -9.48%. Besides, the AC50 under setting [2] was 0.164 µM [falling, full curve, poor fit]. Turning to `COC(=O)c1ccc(CS(=O)(=O)c2ccc(C)cc2)cc1`, the cell number change is -65%. Also, the AC50 under setting [1] is 14.6 µM [falling, partial curve, poor fit]. Take `CCOc1ccc2nc(NS(=O)(=O)c3cccs3)sc2c1`: the cell number change was 16.7%. Under setting [2], the AC50 is 29.1 µM [rising, single point]. Take `CCOC(=O)c1cc(-c2ccccc2)n(CC(=O)Nc2cccc(OC)c2)c1C`: the cell number change came out at 2.04%. Moreover, the concentration at half-maximal activity (AC50) under setting [2] was 1.64 µM [falling, single point]. For the compound `COc1cccc(NC(=O)Nc2ccc(CC(=O)O)cc2)c1`, the cell number change is -6.34%. For the same compound, the half-maximal activity concentration (AC50) under setting [2] was 3.66 µM [falling, single point]. In the case of `O=C(COc1ccc(S(=O)(=O)NC2CCCCC2)cc1)NCc1ccccn1`, the AC50 runs as follows: under setting [1], 6.51 µM [rising, single point]; under setting [2], 6.51 µM [rising, single point]. Consider `O=C(CCCOc1ccccc1)Nc1nnc(C2CCCO2)s1` (stereo not given), for which the cell number change turned out to be 11%. Besides, the AC50 under setting [2] was 29.1 µM [falling, single point]. As for `CC1CCc2nn(CC(=O)NCCC3=CCCCC3)cc2C1` (stereo not given), the cell number change is -44.1%. In addition, the concentration at half-maximal activity (AC50) under setting [1] is 25.9 µM [falling, partial curve, poor fit]. Under setting [2], the AC50 was 7.31 µM [falling, full curve]. Take `CCCCOc1ccccc1C1NC(=O)NC(C)=C1C(=O)OCCOCC` (stereo not given): the concentration at half-maximal activity (AC50) runs as follows: under setting [1], 5.17 µM [falling, single point]; under setting [2], 6.51 µM [falling, single point]. With `CC(OC(=O)Cc1n[nH]c(=O)c2ccccc12)C(=O)Nc1ccc(S(N)(=O)=O)cc1` (stereo not given), the cell number change is -40%. Moreover, under setting [1], the AC50 is 0.326 µM [falling, full curve, poor fit]. Take `Cc1ccc(/C=N/NC(=O)c2ccc(NC(=O)c3ccc(Cl)cc3)cc2)o1`: the cell number change was 1.71%. Also, the AC50 under setting [2] is 0.517 µM [rising, full curve]. Consider `O=C(CCNC(=O)c1ccco1)Nc1ccccc1OC(F)F`, for which the cell number change stood at 0.952%.

On to `OC1(Cc2ccn[nH]2)CCCCC1`, for which the cell number change was -49.9%. Besides, the concentration at half-maximal activity (AC50) under setting [1] is 4.11 µM [falling, full curve]. Under setting [2], the half-maximal activity concentration (AC50) is 0.0058 µM [falling, full curve, poor fit]. Take `CC(=O)Nc1ccccc1C(=O)C(=O)Nc1ccc(C(=O)N2CCOCC2)cc1`: the cell number change was -22%. Consider `COc1cccc2cc(C(C)N(CCCN3CCOCC3)C(=S)Nc3ccc(C)cc3)oc12` (stereo not given), for which the cell number change was -21.4%. For the same compound, the AC50 under setting [1] is 0.0058 µM [falling, full curve, poor fit]. As for `COc1cc(S(=O)(=O)Nc2ccccn2)ccc1F`, the cell number change was -31.2%. Besides, under setting [1], the AC50 was 7.31 µM [falling, partial curve, poor fit]. Besides, the AC50 under setting [2] is 6.51 µM [falling, single point]. As to `Cc1cc(S(=O)(=O)N2CCOCC2)ccc1OCC(=O)Nc1ccc(F)c(Cl)c1`, the cell number change is -1.9%. `Nc1nc2n(n1)C(c1ccccc1)CC(c1ccc(F)cc1)N2` (stereo not given): the cell number change was 2.52%. In addition, the concentration at half-maximal activity (AC50) under setting [2] was 0.259 µM [rising, full curve]. Turning to `CCOC(=O)N1CCN(C(=O)c2oc3ccc(S(=O)(=O)N4CCOCC4)cc3c2C)CC1`, the cell number change was -7.82%. With `CCOC(=O)C(C)N1C(=O)S/C(=C\c2ccc(-c3ccccc3C(=O)O)o2)C1=O` (stereo not given), the cell number change was determined as 24.3%. Besides, the AC50 under setting [2] was 14.6 µM [falling, partial curve, poor fit].

In the case of `COc1ccc(C(=O)NNC(=O)C(=O)Nc2ccc(C)cc2)cc1`, the cell number change worked out at 15.7%. Besides, the AC50 under setting [2] is 0.58 µM [falling, single point]. Consider `NC(=O)CSc1ncc(-c2ccccc2)[nH]1`, for which the cell number change is -7.07%. Further, under setting [2], the AC50 was 16.4 µM [rising, single point]. In the case of `COc1ccc(N=C2NC(=O)C(CO)(CO)S2)cc1`, the cell number change came to 22.5%. Under setting [2], the AC50 was 29.1 µM [rising, single point].

For `Cc1cccc(C)c1NC(=O)Cn1nc(-c2ccccc2)nc1-c1ccccc1`, the cell number change was determined as 38%. Further, the AC50 under setting [1] was 0.0366 µM [rising, full curve, poor fit]. The AC50 under setting [2] was 0.184 µM [rising, full curve, poor fit].

For the compound `CCCCN1CC(=O)N2[C@H](c3ccc(OC)cc3)[C@@H]3C(=O)N(CC)C(=O)[C@@H]3[C@]2(Cc2ccccc2)C1=O`, the cell number change was 12.9%. For the same compound, under setting [2], the half-maximal activity concentration (AC50) was 3.66 µM [falling, single point]. With `FC(F)(F)Oc1ccc(NC(=S)NCCCN2CCOCC2)cc1`, the cell number change is -14.2%. Further, the half-maximal activity concentration (AC50) under setting [1] is 0.0291 µM [falling, full curve, poor fit].
